All values are for the listed drug together with lestaurtinib (4 nM): C[C@]12O[C@H](C[C@]1(O)CO)n1c3ccccc3c3c4c(c5c6ccccc6n2c5c31)CNC4=O

Drugs:
sunitinib, 400 nM: CCN(CC)CCNC(=O)c1c(C)[nH]c(/C=C2\C(=O)Nc3ccc(F)cc32)c1C
NVP-BEZ235, 4 nM: Cn1c(=O)n(-c2ccc(C(C)(C)C#N)cc2)c2c3cc(-c4cnc5ccccc5c4)ccc3ncc21
OSI-906, 400 nM: C[C@]1(O)C[C@@H](c2nc(-c3ccc4ccc(-c5ccccc5)nc4c3)c3c(N)nccn32)C1
MK-2206, 400 nM: NC1(c2ccc(-c3nc4ccn5c(=O)[nH]nc5c4cc3-c3ccccc3)cc2)CCC1
vismodegib, 1000 nM: CS(=O)(=O)c1ccc(C(=O)Nc2ccc(Cl)c(-c3ccccn3)c2)c(Cl)c1
stibogluconate, 2000 nM: O=C(O)[C@@H]1[O][Sb](=[O])([O][Sb]2(=[O])[O][C@H]([C@H](O)CO)[C@H](O)[C@H](C(=O)O)[O]2)[O][C@H]([C@H](O)CO)[C@@H]1O (stereo partly drawn)
lapatinib, 800 nM: CS(=O)(=O)CCNCc1ccc(-c2ccc3ncnc(Nc4ccc(OCc5cccc(F)c5)c(Cl)c4)c3c2)o1
veliparib, 1400 nM: C[C@]1(c2nc3c(C(N)=O)cccc3[nH]2)CCCN1
decitabine, 100 nM: Nc1ncn([C@H]2C[C@H](O)[C@@H](CO)O2)c(=O)n1
gemcitabine, 0.4 nM: Nc1ccn([C@@H]2O[C@H](CO)[C@@H](O)C2(F)F)c(=O)n1
dovitinib, 100 nM: CN1CCN(c2ccc3nc(-c4c(N)c5c(F)cccc5[nH]c4=O)[nH]c3c2)CC1
OSU-03012, 1000 nM: NCC(=O)Nc1ccc(-n2nc(C(F)(F)F)cc2-c2ccc3c(ccc4ccccc43)c2)cc1
ENMD-2076, 40 nM: Cc1cc(Nc2cc(N3CCN(C)CC3)nc(/C=C/c3ccccc3)n2)n[nH]1
ZM336372, 2000 nM: Cc1ccc(NC(=O)c2cccc(N(C)C)c2)cc1NC(=O)c1ccc(O)cc1
palbociclib, 40 nM: CC(=O)c1c(C)c2cnc(Nc3ccc(N4CCNCC4)cn3)nc2n(C2CCCC2)c1=O
sorafenib, 400 nM: CNC(=O)c1cc(Oc2ccc(NC(=O)Nc3ccc(Cl)c(C(F)(F)F)c3)cc2)ccn1
PF-562271, 80 nM: CN(c1ncccc1CNc1nc(Nc2ccc3c(c2)CC(=O)N3)ncc1C(F)(F)F)S(C)(=O)=O
erlotinib, 800 nM: C#Cc1cccc(Nc2ncnc3cc(OCCOC)c(OCCOC)cc23)c1
CX-4945, 400 nM: O=C(O)c1ccc2c(c1)nc(Nc1cccc(Cl)c1)c1ccncc12
lenalidomide, 1000 nM: Nc1cccc2c1CN(C1CCC(=O)NC1=O)C2=O (stereo not drawn)
SNS-314, 0.8 nM: O=C(Nc1cccc(Cl)c1)Nc1ncc(CCNc2ncnc3ccsc23)s1
docetaxel, 0.1 nM: CC(=O)O[C@@]12CO[C@@H]1C[C@H](O)[C@@]1(C)C(=O)[C@H](O)C3=C(C)[C@@H](OC(=O)[C@H](O)[C@@H](NC(=O)OC(C)(C)C)c4ccccc4)C[C@@](O)([C@@H](OC(=O)c4ccccc4)[C@H]21)C3(C)C
vorinostat, 80 nM: O=C(CCCCCCC(=O)Nc1ccccc1)NO
PF-04217903, 1000 nM: OCCn1cc(-c2cnc3nnn(Cc4ccc5ncccc5c4)c3n2)cn1
everolimus, 20 nM: CO[C@H]1C[C@@H]2CC[C@@H](C)[C@@](O)(O2)C(=O)C(=O)N2CCCC[C@H]2C(=O)O[C@H]([C@H](C)C[C@@H]2CC[C@@H](OCCO)[C@H](OC)C2)CC(=O)[C@H](C)/C=C(\C)[C@@H](O)[C@@H](OC)C(=O)[C@H](C)C[C@H](C)/C=C/C=C/C=C/1C
bortezomib, 1 nM: CC(C)C[C@H](NC(=O)[C@H](Cc1ccccc1)NC(=O)c1cnccn1)B(O)O
fludarabine, 200 nM: Nc1nc(F)nc2c1ncn2[C@@H]1O[C@H](CO)[C@@H](O)[C@@H]1O
PLX4720, 80 nM: CCCS(=O)(=O)Nc1ccc(F)c(C(=O)c2c[nH]c3ncc(Cl)cc23)c1F

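Human melanoma cells were exposed to a pair of drugs for 72 h in 1,536-well plates and read by automated microscopy after fixing and staining. Each value is the count of nuclei relative to DMSO-treated wells, in %, so that 100 equals the control. Concentrations were fixed for each drug; these are the lower of two levels, a fifth of the higher. No replicate spread is given; individual values may be noisy.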
Only some of the drugs and lines screened are listed, without regard to their results.

gemcitabine gave C32: 103; A375: 85.0; A101D: 103; A2058: 116. Results for CX-4945 are C32: 99.8; A375: 109; A101D: 92.0; A2058: 101. With erlotinib the screen read C32: 93.8; A375: 79.4; A101D: 85.6; A2058: 90.0. MK-2206 gave C32: 112; A375: 59.2; A101D: 73.6; A2058: 81.6. With everolimus the screen read C32: 87.3; A375: 55.0; A101D: 85.2; A2058: 66.2. Results for veliparib are C32: 89.1; A375: 93.9; A101D: 90.4; A2058: 94.2.

For bortezomib the values were C32: 112; A375: 108; A101D: 48.9; A2058: 95.1. Results for stibogluconate are C32: 90.1; A375: 118; A101D: 94.9; A2058: 116. Results for PF-04217903 are C32: 105; A375: 134; A101D: 101; A2058: 102. Results for lapatinib are C32: 91.1; A375: 93.6; A101D: 84.7; A2058: 99.3. With sorafenib the screen read C32: 92.9; A375: 102; A101D: 87.7; A2058: 89.0. Results for vorinostat are C32: 95.8; A375: 101; A101D: 72.6; A2058: 91.0.

For decitabine the values were C32: 92.9; A375: 85.2; A101D: 81.2; A2058: 88.2. Results for OSU-03012 are C32: 124; A375: 15.1; A101D: 107; A2058: 110. fludarabine gave C32: 115; A375: 26.4; A101D: 88.2; A2058: 117. For docetaxel the values were C32: 107; A375: 54.9; A101D: 83.1; A2058: 23.9. Results for SNS-314 are C32: 98.3; A375: 92.1; A101D: 94.6; A2058: 105. OSI-906 gave C32: 88.7; A375: 53.0; A101D: 85.6; A2058: 99.3.

Results for PF-562271 are C32: 107; A375: 82.0; A101D: 98.9; A2058: 85.8. With PLX4720 the screen read C32: 96.7; A375: 86.7; A101D: 98.7; A2058: 98.0. vismodegib gave C32: 77.4; A375: 94.2; A101D: 75.9; A2058: 94.8. Results for ZM336372 are C32: 95.3; A375: 100; A101D: 82.4; A2058: 105. For ENMD-2076 the values were C32: 106; A375: 110; A101D: 102; A2058: 93.9. With sunitinib the screen read C32: 78.0; A375: 64.1; A101D: 84.2; A2058: 89.5.

dovitinib gave C32: 82.4; A375: 79.8; A101D: 73.2; A2058: 79.7. For palbociclib the values were C32: 70.6; A375: 71.7; A101D: 81.6; A2058: 123. With NVP-BEZ235 the screen read C32: 93.7; A375: 85.4; A101D: 96.4; A2058: 90.5. lenalidomide gave C32: 111; A375: 89.3; A101D: 112; A2058: 105.

The first 3 entries again:

Partner,C32,A375,A101D,A2058
gemcitabine,103,85.0,103,116
CX-4945,99.8,109,92.0,101
erlotinib,93.8,79.4,85.6,90.0

From a melanoma drug combination screen (doi:10.1371/journal.pone.0140310); values rounded.